Some of the results follow.
compound: CC1=C2C(=CC=C1)N=C(N(C2=O)C3=CC=CC=C3C)CN4C=NC5=C(N=CN=C54)N; assay: log2 fold change, soluble protein after heating vs DMSO (PISA); higher = thermal stabilisation; K562 lysate, 10 uM; active = over 0.2 and 3.5 SD of the protein, either way, in both replicates (recomputed)
Summary of the method: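 K562 pellets were dounce-homogenised in PBS pH 7.4 with 1 mM MgCl2, and the crude extract at 1 mg/mL protein was treated with 10 μM compound for 30 min. Aliquots were heated for 3 min across 48°C-58°C, pooled, and brought to 0.5% NP-40 at 4°C; soluble protein was the supernatant after 21,000xg for 90 min. Soluble protein was quantified by TMTpro 16plex LC-MS/MS with channel sums equalised, and reported as log2 fold change in thermal stability against DMSO controls, with values from duplicates.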

Chains of the proteins cited; added tags and fusions are not shown. Lines headed by an entry give the natural chain unless they say otherwise; changes in a name come on top.
UniProt Q8NG48: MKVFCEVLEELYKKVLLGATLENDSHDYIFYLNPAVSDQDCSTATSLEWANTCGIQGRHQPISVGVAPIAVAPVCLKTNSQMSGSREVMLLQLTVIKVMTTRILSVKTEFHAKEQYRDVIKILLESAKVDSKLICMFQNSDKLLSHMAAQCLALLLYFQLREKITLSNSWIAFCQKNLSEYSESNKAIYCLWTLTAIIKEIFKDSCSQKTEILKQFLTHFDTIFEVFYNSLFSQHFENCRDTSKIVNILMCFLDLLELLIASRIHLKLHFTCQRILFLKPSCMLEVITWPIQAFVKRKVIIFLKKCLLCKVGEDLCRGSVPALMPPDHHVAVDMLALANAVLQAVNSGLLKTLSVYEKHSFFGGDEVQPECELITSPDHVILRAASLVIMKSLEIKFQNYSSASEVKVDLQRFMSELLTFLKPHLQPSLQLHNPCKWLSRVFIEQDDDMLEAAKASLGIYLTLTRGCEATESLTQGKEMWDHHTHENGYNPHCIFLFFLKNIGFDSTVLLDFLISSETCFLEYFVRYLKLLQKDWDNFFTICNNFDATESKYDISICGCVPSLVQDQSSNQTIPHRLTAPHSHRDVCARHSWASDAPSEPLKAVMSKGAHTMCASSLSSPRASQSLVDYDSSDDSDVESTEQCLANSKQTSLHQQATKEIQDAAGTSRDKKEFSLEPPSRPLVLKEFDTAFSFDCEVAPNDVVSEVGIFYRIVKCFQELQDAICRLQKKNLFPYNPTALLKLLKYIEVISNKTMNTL
UniProt Q6UWP7: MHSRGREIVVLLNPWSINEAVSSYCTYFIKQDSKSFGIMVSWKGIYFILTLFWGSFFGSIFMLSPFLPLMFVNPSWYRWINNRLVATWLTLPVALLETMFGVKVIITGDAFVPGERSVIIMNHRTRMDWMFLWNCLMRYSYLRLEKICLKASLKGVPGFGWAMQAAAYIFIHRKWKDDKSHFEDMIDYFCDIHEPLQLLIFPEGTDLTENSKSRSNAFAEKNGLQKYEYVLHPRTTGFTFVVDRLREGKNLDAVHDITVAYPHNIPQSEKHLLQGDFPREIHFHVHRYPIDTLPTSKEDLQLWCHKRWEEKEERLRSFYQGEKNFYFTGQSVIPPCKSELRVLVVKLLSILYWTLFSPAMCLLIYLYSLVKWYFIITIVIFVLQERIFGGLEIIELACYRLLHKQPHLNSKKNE
UniProt Q8N1G4: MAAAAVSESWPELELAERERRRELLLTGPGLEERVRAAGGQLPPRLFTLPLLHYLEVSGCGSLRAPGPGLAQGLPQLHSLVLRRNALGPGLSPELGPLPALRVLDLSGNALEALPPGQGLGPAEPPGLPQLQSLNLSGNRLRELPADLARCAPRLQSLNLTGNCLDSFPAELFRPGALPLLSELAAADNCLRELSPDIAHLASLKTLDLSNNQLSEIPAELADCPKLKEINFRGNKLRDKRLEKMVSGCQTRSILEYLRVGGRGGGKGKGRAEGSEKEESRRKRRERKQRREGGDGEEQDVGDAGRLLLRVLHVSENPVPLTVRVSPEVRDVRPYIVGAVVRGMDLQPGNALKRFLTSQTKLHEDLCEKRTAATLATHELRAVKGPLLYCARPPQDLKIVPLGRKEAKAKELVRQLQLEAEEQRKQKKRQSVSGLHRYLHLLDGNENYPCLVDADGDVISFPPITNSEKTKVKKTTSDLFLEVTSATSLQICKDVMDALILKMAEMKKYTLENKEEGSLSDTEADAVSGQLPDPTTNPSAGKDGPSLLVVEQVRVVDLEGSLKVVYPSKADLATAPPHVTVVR
UniProt Q15334: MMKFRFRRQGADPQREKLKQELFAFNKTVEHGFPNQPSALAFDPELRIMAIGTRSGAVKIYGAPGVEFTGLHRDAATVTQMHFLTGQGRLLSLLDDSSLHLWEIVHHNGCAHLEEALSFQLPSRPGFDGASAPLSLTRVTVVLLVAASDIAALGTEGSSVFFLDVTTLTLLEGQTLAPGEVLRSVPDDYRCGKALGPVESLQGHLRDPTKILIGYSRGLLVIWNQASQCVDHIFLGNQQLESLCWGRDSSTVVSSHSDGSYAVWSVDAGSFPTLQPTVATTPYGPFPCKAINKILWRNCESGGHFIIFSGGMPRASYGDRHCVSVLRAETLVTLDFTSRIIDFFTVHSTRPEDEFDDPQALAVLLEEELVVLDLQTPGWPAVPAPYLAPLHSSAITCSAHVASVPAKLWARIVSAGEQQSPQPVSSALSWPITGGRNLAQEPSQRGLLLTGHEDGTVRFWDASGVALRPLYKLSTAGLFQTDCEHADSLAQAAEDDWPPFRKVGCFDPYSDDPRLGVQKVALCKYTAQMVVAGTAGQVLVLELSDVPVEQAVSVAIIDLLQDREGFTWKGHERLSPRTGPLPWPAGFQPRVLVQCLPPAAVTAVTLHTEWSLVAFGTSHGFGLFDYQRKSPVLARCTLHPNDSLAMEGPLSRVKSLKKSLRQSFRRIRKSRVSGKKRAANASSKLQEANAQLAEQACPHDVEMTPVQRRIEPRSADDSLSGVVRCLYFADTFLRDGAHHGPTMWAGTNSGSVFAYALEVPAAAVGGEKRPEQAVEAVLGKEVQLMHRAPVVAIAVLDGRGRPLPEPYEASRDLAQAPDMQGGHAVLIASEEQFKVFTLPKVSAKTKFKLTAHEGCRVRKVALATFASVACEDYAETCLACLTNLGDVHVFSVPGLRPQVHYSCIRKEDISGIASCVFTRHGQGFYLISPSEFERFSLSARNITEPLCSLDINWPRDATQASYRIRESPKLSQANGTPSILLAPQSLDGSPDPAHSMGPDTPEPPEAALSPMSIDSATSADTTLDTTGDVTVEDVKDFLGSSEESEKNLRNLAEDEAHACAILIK
UniProt Q86U70: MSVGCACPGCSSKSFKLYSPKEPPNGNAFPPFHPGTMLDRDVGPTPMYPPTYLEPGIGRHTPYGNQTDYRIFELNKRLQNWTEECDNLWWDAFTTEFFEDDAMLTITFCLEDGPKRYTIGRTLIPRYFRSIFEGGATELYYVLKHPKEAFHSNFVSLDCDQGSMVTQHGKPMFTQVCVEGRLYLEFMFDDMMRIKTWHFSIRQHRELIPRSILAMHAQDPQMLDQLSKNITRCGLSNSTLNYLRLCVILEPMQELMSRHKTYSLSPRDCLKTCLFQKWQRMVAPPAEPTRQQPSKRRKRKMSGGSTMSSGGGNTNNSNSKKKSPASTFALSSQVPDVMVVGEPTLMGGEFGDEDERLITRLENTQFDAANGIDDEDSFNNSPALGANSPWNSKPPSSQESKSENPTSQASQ
UniProt Q15345: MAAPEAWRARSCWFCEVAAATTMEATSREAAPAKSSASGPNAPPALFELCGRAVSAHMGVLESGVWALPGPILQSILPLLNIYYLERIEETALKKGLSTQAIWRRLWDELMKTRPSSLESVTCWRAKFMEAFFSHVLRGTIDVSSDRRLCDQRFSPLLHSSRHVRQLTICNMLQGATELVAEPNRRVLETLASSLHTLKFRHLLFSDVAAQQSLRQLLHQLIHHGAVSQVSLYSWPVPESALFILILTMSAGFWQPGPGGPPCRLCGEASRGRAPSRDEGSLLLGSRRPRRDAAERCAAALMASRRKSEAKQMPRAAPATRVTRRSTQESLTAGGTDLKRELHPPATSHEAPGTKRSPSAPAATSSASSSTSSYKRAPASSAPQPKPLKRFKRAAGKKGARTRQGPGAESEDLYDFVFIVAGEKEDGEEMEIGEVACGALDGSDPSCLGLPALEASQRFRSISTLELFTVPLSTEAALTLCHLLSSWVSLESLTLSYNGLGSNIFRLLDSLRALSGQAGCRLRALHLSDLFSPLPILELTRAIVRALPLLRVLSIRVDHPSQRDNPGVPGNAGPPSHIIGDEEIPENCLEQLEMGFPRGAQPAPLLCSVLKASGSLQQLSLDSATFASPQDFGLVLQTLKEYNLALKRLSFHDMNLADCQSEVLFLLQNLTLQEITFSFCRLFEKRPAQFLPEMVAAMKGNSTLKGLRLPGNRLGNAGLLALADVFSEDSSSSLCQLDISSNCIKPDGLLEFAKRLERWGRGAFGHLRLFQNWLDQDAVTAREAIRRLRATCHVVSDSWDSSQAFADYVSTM
UniProt Q96GY3: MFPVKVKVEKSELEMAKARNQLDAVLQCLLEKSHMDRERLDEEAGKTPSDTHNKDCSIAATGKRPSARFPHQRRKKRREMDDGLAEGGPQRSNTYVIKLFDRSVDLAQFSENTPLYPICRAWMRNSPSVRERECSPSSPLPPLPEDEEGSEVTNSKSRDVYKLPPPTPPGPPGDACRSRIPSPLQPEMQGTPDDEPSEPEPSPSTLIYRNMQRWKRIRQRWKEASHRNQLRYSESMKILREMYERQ
UniProt Q9H9A6: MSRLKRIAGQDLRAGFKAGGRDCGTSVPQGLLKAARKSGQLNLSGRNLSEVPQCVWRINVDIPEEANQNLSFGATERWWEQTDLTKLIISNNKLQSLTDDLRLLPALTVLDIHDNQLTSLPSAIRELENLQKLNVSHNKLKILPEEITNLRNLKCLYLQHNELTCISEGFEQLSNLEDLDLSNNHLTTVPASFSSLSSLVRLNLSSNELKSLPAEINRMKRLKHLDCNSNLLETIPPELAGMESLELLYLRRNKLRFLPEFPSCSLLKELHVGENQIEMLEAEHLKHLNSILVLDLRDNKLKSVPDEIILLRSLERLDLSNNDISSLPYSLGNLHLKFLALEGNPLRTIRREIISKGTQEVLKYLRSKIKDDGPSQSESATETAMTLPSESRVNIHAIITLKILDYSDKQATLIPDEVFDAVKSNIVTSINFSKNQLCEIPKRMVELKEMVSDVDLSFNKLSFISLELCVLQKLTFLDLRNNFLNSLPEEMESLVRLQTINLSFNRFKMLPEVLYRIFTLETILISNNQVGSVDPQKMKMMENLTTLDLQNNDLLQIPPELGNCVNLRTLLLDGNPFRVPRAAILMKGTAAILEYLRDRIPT
UniProt Q8IWU2: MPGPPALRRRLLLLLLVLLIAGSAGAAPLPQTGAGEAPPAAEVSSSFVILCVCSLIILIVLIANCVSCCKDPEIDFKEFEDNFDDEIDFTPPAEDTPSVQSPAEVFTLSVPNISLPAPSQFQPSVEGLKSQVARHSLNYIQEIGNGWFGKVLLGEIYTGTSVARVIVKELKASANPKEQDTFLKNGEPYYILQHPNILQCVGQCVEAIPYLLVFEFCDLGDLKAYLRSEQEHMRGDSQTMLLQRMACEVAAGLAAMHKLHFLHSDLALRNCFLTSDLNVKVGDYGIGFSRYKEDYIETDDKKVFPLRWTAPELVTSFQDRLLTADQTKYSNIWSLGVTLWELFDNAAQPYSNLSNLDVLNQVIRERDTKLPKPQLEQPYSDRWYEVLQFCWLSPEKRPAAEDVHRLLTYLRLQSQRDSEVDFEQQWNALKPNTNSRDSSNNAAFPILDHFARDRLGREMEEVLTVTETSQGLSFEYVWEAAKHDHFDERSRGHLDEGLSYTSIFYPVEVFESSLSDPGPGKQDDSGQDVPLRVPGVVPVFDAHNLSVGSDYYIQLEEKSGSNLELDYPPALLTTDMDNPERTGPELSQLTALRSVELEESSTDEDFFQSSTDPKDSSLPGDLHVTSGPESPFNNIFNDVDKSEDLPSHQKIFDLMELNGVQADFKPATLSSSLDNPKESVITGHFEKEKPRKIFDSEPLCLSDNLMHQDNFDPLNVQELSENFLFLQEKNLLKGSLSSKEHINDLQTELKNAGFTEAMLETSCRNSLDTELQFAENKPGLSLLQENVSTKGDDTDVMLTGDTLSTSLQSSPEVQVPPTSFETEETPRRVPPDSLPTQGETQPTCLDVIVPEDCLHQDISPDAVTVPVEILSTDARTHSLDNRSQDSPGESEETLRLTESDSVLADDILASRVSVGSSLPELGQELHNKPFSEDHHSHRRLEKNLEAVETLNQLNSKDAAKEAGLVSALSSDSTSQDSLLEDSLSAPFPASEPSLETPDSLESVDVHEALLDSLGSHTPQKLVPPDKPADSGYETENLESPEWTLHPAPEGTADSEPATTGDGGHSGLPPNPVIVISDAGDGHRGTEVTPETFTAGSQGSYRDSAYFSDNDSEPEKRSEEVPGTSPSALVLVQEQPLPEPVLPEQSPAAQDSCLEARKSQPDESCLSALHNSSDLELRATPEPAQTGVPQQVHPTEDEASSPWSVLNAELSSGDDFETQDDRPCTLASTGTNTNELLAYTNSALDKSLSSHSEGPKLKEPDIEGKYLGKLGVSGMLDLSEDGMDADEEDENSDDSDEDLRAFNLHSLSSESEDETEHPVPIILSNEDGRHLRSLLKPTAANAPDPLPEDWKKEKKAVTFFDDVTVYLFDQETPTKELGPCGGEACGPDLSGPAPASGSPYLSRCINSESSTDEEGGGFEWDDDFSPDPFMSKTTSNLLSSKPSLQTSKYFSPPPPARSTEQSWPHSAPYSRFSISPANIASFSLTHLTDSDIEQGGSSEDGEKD
UniProt O95214: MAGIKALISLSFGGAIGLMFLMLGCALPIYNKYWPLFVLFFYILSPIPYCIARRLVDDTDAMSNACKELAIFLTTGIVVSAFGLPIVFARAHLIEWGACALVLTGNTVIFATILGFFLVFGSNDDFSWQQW

Target | log2 fold change
LINS1 (UniProt Q8NG48) | inactive: 0.079
LLPH (UniProt Q9BRT6) | inactive: -0.027
LCLAT1 (UniProt Q6UWP7) | inactive: 0.085
LIG4 (UniProt P49917) | inactive: -0.056
LPCAT2 (UniProt Q7L5N7) | inactive: 0.062
LRCH4 (UniProt O75427) | inactive: 0.004
LIMS1 isoform 3 (UniProt P48059) | inactive: -0.026
LSM14B isoform 2 (UniProt Q9BX40) | inactive: -0.001
LIMD1 (UniProt Q9UGP4) | inactive: -0.011
LCP2 (UniProt Q13094) | inactive: 0.008
LIN7C (UniProt Q9NUP9) | inactive: 0.005
LSM3 (UniProt P62310) | inactive: 0.038
LMNA (UniProt P02545) | inactive: -0.02
LDAH isoform 2 (UniProt Q9H6V9) | inactive: 0.001
LRRC47 (UniProt Q8N1G4) | inactive: 0.003
LLGL1 (UniProt Q15334) | inactive: 0.024
LIMK2 isoform 3 (UniProt P53671) | inactive: 0.038

Fetched one by one from the entries so far, two records:
Target | log2 fold change
LSM3 (UniProt P62310) | inactive: 0.038
LPCAT2 (UniProt Q7L5N7) | inactive: 0.062

(further entries)

Target | log2 fold change
LDB1 (UniProt Q86U70) | inactive: -0.027
LMNB1 (UniProt P20700) | inactive: -0.012
LRRC41 (UniProt Q15345) | inactive: 0.009
LRFN1 (UniProt Q9P244) | inactive: -0.098
LRRC4B (UniProt Q9NT99) | inactive: 0.098
LGALS8 isoform 2 (UniProt O00214) | inactive: 0.069
LRSAM1 (UniProt Q6UWE0) | inactive: 0.024
LMAN1 (UniProt P49257) | inactive: 0.039
LDHC (UniProt P07864) | inactive: 0.023
LRRC20 (UniProt Q8TCA0) | inactive: 0.054
LIN37 (UniProt Q96GY3) | inactive: -0.105
LRBA, A0A494BZW2 | inactive: 0.028
LRRC40 (UniProt Q9H9A6) | inactive: 0.003
LMTK2 (UniProt Q8IWU2) | inactive: -0.001
LEPROTL1 isoform 2 (UniProt O95214) | inactive: -0.078
LARS (UniProt Q9P2J5) | inactive: 0.015

From the supplement of paper PMC10849652
